Source: PMC9268414, “Screening an In-House Isoquinoline Alkaloids Library for New Blockers of Voltage-Gated Na^+ Channels Using Voltage Sensor Fluorescent Probes: Hits and Biases” (Molecules, 2022)

test system: NaV channels endogenously expressed in GH3b6 cells; assay: FRET voltage sensor probe (VSP) assay of BTX-induced depolarization in GH3b6 cells; type: cell-based, rat; conditions: BTX 1 µM, n = 6

Molecule	Hill Slope, inhibition of BTX-evoked VSP signal
O=C1c2ccccc2-c2c3c(cc4ccnc1c24)OCO3 [IA39, liriodenine]	0.91 ± 0.19
COc1cc2c3cc1Oc1cc(ccc1O)CC1c4c(cc(OC)c(O)c4Oc4ccc(cc4)CC3N(C)CC2)CCN1C (stereo not shown) [IA52, bebeerine]	1.04 ± 0.29
COc1cccc2c1C(=O)c1nccc3cc4c(c-2c13)OCO4 [IA14, oxostephanine]	0.78 ± 0.12
protopine [IA69]	0.99 ± 0.19
